Results published in patent US20150079071A1, “NON-CATALYTIC DOMAIN TARGETS IN MATRIX METALLOPROTEASE PROTEINS FOR CANCER THERAPIES” (THE REGENTS OF THE UNIVERSITY OF CALIFORNIA, priority 2012, published 2015).
Results are given in words; binding and its absence hold for the method and conditions named. For some assays here: Binding seen in cells or lysates may run through a third protein. Some results given as binding are weak or reduced against the parent protein; the word gives no strength.

Chains of the proteins cited; added tags and fusions are not shown. Residues count along the entry.
UniProt P28862, residues 18-477: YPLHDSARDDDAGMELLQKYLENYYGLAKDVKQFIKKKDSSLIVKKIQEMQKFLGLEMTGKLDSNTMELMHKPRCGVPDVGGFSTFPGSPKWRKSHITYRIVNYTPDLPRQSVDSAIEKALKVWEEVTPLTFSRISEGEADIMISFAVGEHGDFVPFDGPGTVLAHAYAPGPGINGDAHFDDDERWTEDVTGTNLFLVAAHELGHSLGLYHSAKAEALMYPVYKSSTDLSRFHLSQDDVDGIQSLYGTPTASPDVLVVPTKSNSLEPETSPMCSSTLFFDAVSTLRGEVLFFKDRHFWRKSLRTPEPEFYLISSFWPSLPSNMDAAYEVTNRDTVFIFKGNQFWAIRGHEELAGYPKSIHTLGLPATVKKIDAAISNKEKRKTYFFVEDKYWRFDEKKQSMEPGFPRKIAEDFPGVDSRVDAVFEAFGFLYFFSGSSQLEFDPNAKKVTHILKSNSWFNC
UniProt P11499, residues 2-724: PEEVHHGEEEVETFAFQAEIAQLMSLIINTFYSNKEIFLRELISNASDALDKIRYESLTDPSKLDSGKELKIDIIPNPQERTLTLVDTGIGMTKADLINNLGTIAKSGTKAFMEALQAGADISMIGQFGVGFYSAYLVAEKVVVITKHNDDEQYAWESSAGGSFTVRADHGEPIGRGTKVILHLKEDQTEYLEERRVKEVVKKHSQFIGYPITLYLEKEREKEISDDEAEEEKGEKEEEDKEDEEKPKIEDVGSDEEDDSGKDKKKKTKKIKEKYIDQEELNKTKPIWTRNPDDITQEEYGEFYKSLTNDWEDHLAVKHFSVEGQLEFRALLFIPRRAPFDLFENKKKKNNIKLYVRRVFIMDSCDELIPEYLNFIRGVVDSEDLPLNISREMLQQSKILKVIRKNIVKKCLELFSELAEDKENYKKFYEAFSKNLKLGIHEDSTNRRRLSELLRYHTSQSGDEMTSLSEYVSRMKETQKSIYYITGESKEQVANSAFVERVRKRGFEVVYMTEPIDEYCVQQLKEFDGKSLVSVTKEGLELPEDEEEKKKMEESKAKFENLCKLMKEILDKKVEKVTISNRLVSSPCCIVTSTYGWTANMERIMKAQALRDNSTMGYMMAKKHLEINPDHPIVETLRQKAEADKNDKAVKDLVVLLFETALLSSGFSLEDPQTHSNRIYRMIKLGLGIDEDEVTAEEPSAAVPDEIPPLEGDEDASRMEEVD

How the values were obtained:
[1] = molecular target: endogenous murine MMP3 in conditioned medium of control SCp2 cells (mouse) (UniProt P28862); assay: reverse co-IP of HSP90β protein complexes from CM of control SCp2 cells, Western blot
[2] = molecular target: endogenous murine MMP3 in conditioned medium of control SCp2 cells (mouse) (UniProt P28862); assay: IP with rabbit anti-HSP90β antibody from CM of control SCp2 cells, blot for MMP3

- binding [1]: binds
- binding [2]: binds
Substance: heat-shock protein 90β (HSP90β), endogenous, in conditioned medium of SCp2 cells (from UniProt P11499 2-724)
